Measurements taken from paper doi:10.1101/2025.10.22.683840.
These are yes or no findings as the source states them, for the method shown. Binding seen in cells or lysates may run through a third protein. Here binding means that the protein was enriched with, or labelled near, the bait; the list need not be complete.

Target: p53-BirA*-FLAG (human) (UniProt P04637)
Assay: proximity labelling

Binder | binding
ERCC1 (protein, UniProt P07992 1-297) MDPGKDKEGVPQPSGPPARKKFVIPLDEDEVPPGVAKPLFRSTQSLPTVDTSAQAAPQTYAEYAISQPLEGAGATCPTGSEPLAGETPNQALKPGAKSNSIIVSPRQRGNPVLKFVRNVPWEFGDVIPDYVLGQSTCALFLSLRYHNLHPDYIHGRLQSLGKNFALRVLLVQVDVKDPQQALKELAKMCILADCTLILAWSPEEAGRYLETYKAYEQKPADLLMEKLEQDFVSRVTECLTTVKSVNKTDSQTLLTTFGSLEQLIAASREDLALCPGLGPQKARRLFDVLHEPFLKVP | binds
ERCC4 (protein, UniProt Q92889 1-916) MESGQPARRIAMAPLLEYERQLVLELLDTDGLVVCARGLGADRLLYHFLQLHCHPACLVLVLNTQPAEEEYFINQLKIEGVEHLPRRVTNEITSNSRYEVYTQGGVIFATSRILVVDFLTDRIPSDLITGILVYRAHRIIESCQEAFILRLFRQKNKRGFIKAFTDNAVAFDTGFCHVERVMRNLFVRKLYLWPRFHVAVNSFLEQHKPEVVEIHVSMTPTMLAIQTAILDILNACLKELKCHNPSLEVEDLSLENAIGKPFDKTIRHYLDPLWHQLGAKTKSLVQDLKILRTLLQYLSQYDCVTFLNLLESLRATEKAFGQNSGWLFLDSSTSMFINARARVYHLPDAKMSKKEKISEKMEIKEGEETKKELVLESNPKWEALTEVLKEIEAENKESEALGGPGQVLICASDDRTCSQLRDYITLGAEAFLLRLYRKTFEKDSKAEEVWMKFRKEDSSKRIRKSHKRPKDPQNKERASTKERTLKKKKRKLTLTQMVGKPEELEEEGDVEEGYRREISSSPESCPEEIKHEEFDVNLSSDAAFGILKEPLTIIHPLLGCSDPYALTRVLHEVEPRYVVLYDAELTFVRQLEIYRASRPGKPLRVYFLIYGGSTEEQRYLTALRKEKEAFEKLIREKASMVVPEEREGRDETNLDLVRGTASADVSTDTRKAGGQEQNGTQQSIVVDMREFRSELPSLIHRRGIDIEPVTLEVGDYILTPEMCVERKSISDLIGSLNNGRLYSQCISMSRYYKRPVLLIEFDPSKPFSLTSRGALFQEISSNDISSKLTLLTLHFPRLRILWCPSPHATAELFEELKQSKPQPDAATALAITADSETLPESEKYNPGPQDFLLKMPGVNAKNCRSLMHHVKNIAELAALSQDELTSILGNAANAKQLYDFIHTSFAEVVSKGKGKK | binds
POLH (protein, UniProt Q9Y253 1-713) MATGQDRVVALVDMDCFFVQVEQRQNPHLRNKPCAVVQYKSWKGGGIIAVSYEARAFGVTRSMWADDAKKLCPDLLLAQVRESRGKANLTKYREASVEVMEIMSRFAVIERASIDEAYVDLTSAVQERLQKLQGQPISADLLPSTYIEGLPQGPTTAEETVQKEGMRKQGLFQWLDSLQIDNLTSPDLQLTVGAVIVEEMRAAIERETGFQCSAGISHNKVLAKLACGLNKPNRQTLVSHGSVPQLFSQMPIRKIRSLGGKLGASVIEILGIEYMGELTQFTESQLQSHFGEKNGSWLYAMCRGIEHDPVKPRQLPKTIGCSKNFPGKTALATREQVQWWLLQLAQELEERLTKDRNDNDRVATQLVVSIRVQGDKRLSSLRRCCALTRYDAHKMSHDAFTVIKNCNTSGIQTEWSPPLTMLFLCATKFSASAPSSSTDITSFLSSDPSSLPKVPVTSSEAKTQGSGPAVTATKKATTSLESFFQKAAERQKVKEASLSSLTAPTQAPMSNSPSKPSLPFQTSQSTGTEPFFKQKSLLLKQKQLNNSSVSSPQQNPWSNCKALPNSLPTEYPGCVPVCEGVSKLEESSKATPAEMDLAHNSQSMHASSASKSVLEVTQKATPNPSLLAAEDQVPCEKCGSLVPVWDMPEHMDYHFALELQKSFLQPHSSNPQVVSAVSHQGKRNPKSPLACTNKRPRPEGMQTLESFFKPLTH | binds
TOP1 Binding Arginine/Serine Rich Protein (TOPORS) (protein, UniProt Q9NS56 1-1045) MGSQPPLGSPLSREEGEAPPPAPASEGRRRSRRVRLRGSCRHRPSFLGCRELAASAPARPAPASSEIMASAAKEFKMDNFSPKAGTSKLQQTVPADASPDSKCPICLDRFDNVSYLDRCLHKFCFRCVQEWSKNKAECPLCKQPFDSIFHSVRAEDDFKEYVLRPSYNGSFVTPDRRFRYRTTLTRERNASVYSPSGPVNRRTTTPPDSGVLFEGLGISTRPRDVEIPQFMRQIAVRRPTTADERSLRKIQEQDIINFRRTLYRAGARVRNIEDGGRYRDISAEFFRRNPACLHRLVPWLKRELTVLFGAHGSLVNIVQHIIMSNVTRYDLESQAFVSDLRPFLLNRTEHFIHEFISFARSPFNMAAFDQHANYDCPAPSYEEGSHSDSSVITISPDEAETQELDINVATVSQAPWDDETPGPSYSSSEQVHVTMSSLLNTSDSSDEELVTGGATSQIQGVQTNDDLNNDSDDSSDNCVIVGFVKPLAERTPELVELSSDSEDLGSYEKMETVKTQEQEQSYSSGDSDVSRCSSPHSVLGKDEQINKGHCDSSTRIKSKKEEKRSTSLSSPRNLNSSVRGDRVYSPYNHRHRKRGRSRSSDSRSQSRSGHDQKNHRKHHGKKRMKSKRSRSRESSRPRGRRDKKRSRTRDSSWSRRSQTLSLSSESTSRSRSRSSDHGKRRSRSRNRDRYYLRNNYGSRYKWEYTYYSRNKDRDGYESSYRRRTLSRAHYSRQSSSPEFRVQSFSERTNARKKNNHSERKYYYYERHRSRSLSSNRSRTASTGTDRVRNEKPGGKRKYKTRHLEGTNEVAQPSREFASKAKDSHYQKSSSKLDGNYKNESDTFSDSRSSDRETKHKRRKRKTRSLSVEIVYEGKATDTTKHHKKKKKKHKKKHKKHHGDNASRSPVVITIDSDSDKDSEVKEDTECDNSGPQDPLQNEFLAPSLEPFETKDVVTIEAEFGVLDKECDIATLSNNLNNANKTVDNIPPLAASVEQTLDVREESTFVSDLENQPSNIVSLQTEPSRQLPSPRTSLMSVCLGRDCDMS | binds
